The values that follow come from patent publication US20250189532A1, “1,6-DIYNE COMPOUND, ITS PREPARATION METHOD, AND PRODUCTS OBTAINED USING 1,6-DIYNE COMPOUND AS RAW MATERIAL AND THEIR APPLICATIONS” (Fujian Institute of Research on the Structure of Matter, …, priority 2022, published 2025).

Each structure is given as a SMILES string.

The data set in a line: Detection of active oxygen on polytetrafluoroethylene carrier. How it is done:
The compound PA-1 is dissolved in dichloromethane and applied to five pieces of polytetrafluoroethylene carriers respectively, then sodium hypochlorite aqueous solutions with different concentrations (8% mass concentration of sodium hypochlorite aqueous solution, 50 times diluted solution, 500 times diluted solution, 500 times diluted solution, and NaClO-free aqueous solution) are dripped on the carriers. Then, heat at 100° C. for 30 seconds.

As to `C#CCN(C(C#Cc1ccccc1)c1ccccc1)S(=O)(=O)c1ccccc1` (centres unmarked) [PA-1], under “sodium hypochlorite aqueous solutions dripped on, heated at 100° C. for 30 seconds”, the “colour change of the carrier” value was “from colorless to red”. In addition, for the setting “under 365 nm ultraviolet light, sodium hypochlorite, 100° C. for 30 seconds”, the fluorescence change result is recorded as “from no fluorescence to strong fluorescence”.
